Consider 2 compounds from article PMC7277541, “Antimicrobial and Antifungal Activities of Terpene-Derived Palladium Complexes” (Antibiotics, 2020).

SMILES strings stand for the structures.

Series [1] has as its system C. neoformans var. grubii H99 ATCC 208821. Kind of series: Antifungal MIC assay, C. neoformans. The format is cell-based, Cryptococcus neoformans. The following applies: for Selectivity Index (SI) C. neoformans CC50/MIC: CC50 against HEK293 divided by MIC C. neoformans var grubii H99 ATCC 208821; for Selectivity Index (SI) C. neoformans HC10/MIC: HC10 human red blood cells divided by MIC C. neoformans var grubii H99 ATCC 208821. As to the method:
Screening against bacteria and yeasts for antimicrobial activity and toxicity against mammalian cells was performed in duplicate (n = 2). […] Becton Dickinson 242720) agar at 30 °C. A yeast suspension of 1 × 10^6 to 5 × 10^6 CFU/mL (as determined by OD530) was prepared from five colonies form the agar plates, and subsequently diluted with Yeast Nitrogen Base media (YNB; Becton Dickinson 233520), and added to each well of the compound containing plates (384-well plates, NBS; […] Plates were covered and incubated at 35 °C for 36 h without shaking. […] Fluconazole (Sigma Aldrich, F8929) was used as a positive inhibitor control on each plate for both strains.

The test system of series [2] is S. aureus (MRSA) ATCC 43300. Kind of series: Antibacterial MIC assay, S. aureus (MRSA). The format is cell-based, Staphylococcus aureus. The conditions noted are these: for Selectivity Index (SI) S. aureus (MRSA) CC50/MIC: CC50 against HEK293 divided by MIC S. aureus ATCC 43300; for Selectivity Index (SI) S. aureus (MRSA) HC10/MIC: HC10 human red blood cells divided by MIC S. aureus ATCC 43300. The procedure:
Dry compounds were dissolved in dimethyl sulfoxide (DMSO), and serially diluted 2-fold to produce an 8-point dose response with DMSO/water and then added into microtiter plates with a final DMSO concentration of 0.5%, providing a concentration range of 0.25 to 32 μg/mL. Screening against bacteria and yeasts for antimicrobial activity and toxicity against mammalian cells was performed in duplicate (n = 2).
For the bacterial assays, each bacterial strain was cultured in Cation-Adjusted Mueller Hinton Broth (CAMHB; Bacto Laboratories 212322) at 37 °C overnight. Bacterial strains tested were methicillin resistant S. aureus (methicillin-resistant Staphylococcus aureus - MRSA) ATCC 43300, E. coli ATCC 25922, K. pneumoniae K6/ESBL ATCC 700603, P. aeruginosa ATCC 27853, A. baumannii ATCC 19606. A sample of each culture was then diluted 40-fold in fresh CAMHB and incubated at 37 °C for 1.5–3 h. The resultant mid-log phase cultures were diluted with CAMHB (CFU/mL measured by OD600), then added to each well of the compound-containing plates (384-well non-binding surface (NBS) plates; Corning CLS3640), giving a final cell density of 5 × 10^5 CFU/mL and a total volume of 50 μL. Plates were covered and incubated at 37 °C for 18 h without shaking. Inhibition of bacterial growth was determined by measuring absorbance at 600 nm (OD600), using media only as negative control and bacteria without inhibitors as positive control. MIC values were determined as the lowest concentration at which the growth was inhibited by ≥ 80% (equivalent to no visible growth by eye). Colistin sulfate (Sigma Aldrich, Castle Hill, Australia C4461) and vancomycin HCl (Sigma Aldrich, 861987) were used as positive inhibitor controls on each plate for Gram-negative and Gram-positive bacteria, respectively.

On to `C[C@H](N=C1C[C@H]2C[C@H](C2(C)C)[C@@]1(C)O)c1cccc[c]1[Pd][Cl].C[C@H](N=C1C[C@H]2C[C@H](C2(C)C)[C@@]1(C)O)c1cccc[c]1[Pd][Cl]` [Compound 1], for which, in series [1], the “Selectivity Index (SI) C. neoformans CC50/MIC” value turned out to be 23.8 and the “Selectivity Index (SI) C. neoformans HC10/MIC” value was 7.8. Further, in series [2], the “Selectivity Index (SI) S. aureus (MRSA) CC50/MIC” value is on record as 3.0 and the “Selectivity Index (SI) S. aureus (MRSA) HC10/MIC” value was 1.0.
For `C[C@H](N[C@@H]1C[C@H]2C[C@H](C2(C)C)[C@@]1(C)O)c1cccc[c]1[Pd]([Cl])[P](c1ccccc1)(c1ccccc1)c1ccccc1` [Compound 5, (+)-trans-Chloro{(1R,2R,3R,5R)-3-((S)-1′-phenylethylamino)-2,6,6-trimethylbicyclo[3.1.1]heptane-2-ol-C,N}(triphenylphosphine)palladium(II)] the same measures were 2.9, 5.6, 0.2 and 0.4.
